Data taken from PubChem BioAssay AID248 (DTP/NCI, 2004).
The list is a part of this screen's results and no random one: it is rich in T/C values a quarter to a half above the control, in often repeated tests (any T/C) and in doses without a T/C. Other doses and runs of a compound stand elsewhere. T/C: endpoint of the treated group in % of that of the vehicle group. Some doses have a count of surviving animals in place of a T/C: the source files T/C as zero there, which appears to mark a toxic dose or a test without result, not a measured value. Some survivor counts are full or nearly so, which does not show that the dose was tolerated: the source hardly ever lists a survival T/C far under the control, and the zero likely stands for such cases as well. Counts of survivors are from the toxicity check (mostly the fifth day) where no day follows; animals may have died later. Schedule codes are those of the source, taken here to give the interval after Q, in days (D) or hours (H), and the number of doses after X. Some schedule codes hold Z or #, which are not explained here. Some structures stand for samples that the source files as different forms (salt, stereo form or complex); doses refer to the form tested. Some doses were run more than once; the results are listed from low to high. Where survival is the endpoint, this PubChem deposit counts one and a half times the control or more as active, and values a quarter to a half above the control carry no call in these data; other NCI protocols may use other cut-offs. Counts like (3×) count equal records among those shown. Some T/C values are followed by the survivors on the day toxicity was checked, most often the fifth; without a count, all were alive then.

Test system: L1210 leukemia ip in BDF1 mice, survival T/C
Assay: NCI In Vivo Anticancer Drug Screen. Data for tumor model L1210 Leukemia (intraperitoneal) in B6D2F1 (BDF1) mice
Conditions: higher T/C = longer survival
[1] = T/C endpoint: mean survival time, dose: 16.0 mg/kg/injection, schedule: Q01DX010 (ip), vehicle: alkali diluted with saline
[2] = T/C endpoint: mean survival time, dose: 100.0 mg/kg/injection, schedule: Q01DX001 (ip), vehicle: saline
[3] = T/C endpoint: mean survival time, dose: 200.0 mg/kg/injection, schedule: Q01DX001 (ip), vehicle: saline
[4] = T/C endpoint: mean survival time, dose: 400.0 mg/kg/injection, schedule: Q01DX001 (ip), vehicle: saline

For `NC(Cc1ccc(N(CCCl)CCCl)cc1)C(=O)O` (stereo unspecified), the T/C (T/C endpoint: mean survival time, dose: 0.64 mg/kg/injection, schedule: Q01DX Z (ip), vehicle: carboxymethylcellulose (CMC)) was 127 % of control, the T/C (T/C endpoint: mean survival time, dose: 0.85 mg/kg/injection, schedule: Q01DX Z (ip), vehicle: carboxymethylcellulose (CMC)) was 140 % of control and the T/C (T/C endpoint: mean survival time, dose: 1.0 mg/kg/injection, schedule: Q01DX010 (ip), vehicle: alkali diluted with saline) was 133 % of control. For the same compound, the T/C (T/C endpoint: mean survival time, dose: 1.25 mg/kg/injection, schedule: Q01DX Z (ip), vehicle: carboxymethylcellulose (CMC)) was 129 % of control, the T/C (T/C endpoint: mean survival time, dose: 1.28 mg/kg/injection, schedule: Q01DX Z (ip), vehicle: carboxymethylcellulose (CMC)) was 144 % of control and the T/C (T/C endpoint: mean survival time, dose: 1.5 mg/kg/injection, schedule: Q01DX Z (im), vehicle: saline) was 144 % of control. For the same compound, the T/C (T/C endpoint: mean survival time, dose: 1.5 mg/kg/injection, schedule: Q01DX Z (ip), vehicle: saline) was 136 % of control, the T/C (T/C endpoint: mean survival time, dose: 2.0 mg/kg/injection, schedule: Q01DX010 (ip), vehicle: alkali diluted with saline) was 123, 133, 137, 138, 150, 154 % of control and the T/C (T/C endpoint: mean survival time, dose: 2.0 mg/kg/injection, schedule: Q01DX Z (ip), vehicle: methylcellulose (MC)) was 148 % of control. The T/C (T/C endpoint: mean survival time, dose: 2.5 mg/kg/injection, schedule: Q01DX010 (ip), vehicle: saline) was 125 and 131 % of control, the T/C (T/C endpoint: mean survival time, dose: 2.5 mg/kg/injection, schedule: Q01DX Z (ip), vehicle: carboxymethylcellulose (CMC)) was 138 % of control [5 of 6 alive] and the T/C (T/C endpoint: mean survival time, dose: 3.0 mg/kg/injection, schedule: Q01DX Z (sc), vehicle: saline) was 127 % of control. For the same compound, the T/C (T/C endpoint: mean survival time, dose: 4.0 mg/kg/injection, schedule: Q01DX010 (ip), vehicle: alkali diluted with saline) was 139, 155, 169, 200 % of control, the T/C (T/C endpoint: mean survival time, dose: 4.0 mg/kg/injection, schedule: Q01DX Z (ip), vehicle: methylcellulose (MC)) was 145 % of control and the T/C (T/C endpoint: mean survival time, dose: 5.0 mg/kg/injection, schedule: Q01DX009 (ip), vehicle: saline) was 141 % of control. The T/C (T/C endpoint: mean survival time, dose: 5.0 mg/kg/injection, schedule: Q01DX010 (ip), vehicle: saline) was 143 % of control (2×), the T/C (T/C endpoint: mean survival time, dose: 5.0 mg/kg/injection, schedule: Q01DX Z (ip), vehicle: carboxymethylcellulose (CMC)) was 143 % of control and the T/C (T/C endpoint: mean survival time, dose: 8.0 mg/kg/injection, schedule: Q01DX001 (ip), vehicle: saline) was 139 % of control (2×). The T/C (T/C endpoint: mean survival time, dose: 8.0 mg/kg/injection, schedule: Q01DX010 (ip), vehicle: alkali diluted with saline) was 117, 132, 191, 193 % of control, the T/C (T/C endpoint: mean survival time, dose: 8.0 mg/kg/injection, schedule: Q01DX Z (ip), vehicle: methylcellulose (MC)) was 148 % of control and the T/C (T/C endpoint: mean survival time, dose: 10.0 mg/kg/injection, schedule: Q01DX010 (ip), vehicle: saline) was 131 and 147 % of control. The T/C (T/C endpoint: mean survival time, dose: 12.0 mg/kg/injection, schedule: Q01DX001 (ip), vehicle: saline) was 135 and 139 % of control, the T/C (T/C endpoint: mean survival time, dose: 12.0 mg/kg/injection, schedule: Q01DX Z (im), vehicle: saline) was 133 % of control [4 of 6 alive] and the T/C (T/C endpoint: mean survival time, dose: 12.0 mg/kg/injection, schedule: Q01DX Z (ip), vehicle: saline) was 125 % of control [5 of 6 alive]. For the same compound, the survivor count (T/C endpoint: mean survival time, dose: 12.5 mg/kg/injection, schedule: Q01DX Z (ip), vehicle: saline) was 6 of 6, the T/C [1] was 98, 105, 108 % of control and the survivor count [1] was 6 of 6. For the same compound, the T/C (T/C endpoint: mean survival time, dose: 20.0 mg/kg/injection, schedule: Q01DX009 (ip), vehicle: saline) was 149 % of control, the survivor count (T/C endpoint: mean survival time, dose: 24.0 mg/kg/injection, schedule: Q01DX Z (im), vehicle: saline) was 2 of 6 and the survivor count (T/C endpoint: mean survival time, dose: 24.0 mg/kg/injection, schedule: Q01DX Z (ip), vehicle: saline) was 6 of 6. For the same compound, the survivor count (T/C endpoint: mean survival time, dose: 24.0 mg/kg/injection, schedule: Q01DX Z (oral), vehicle: saline) was 6 of 6, the survivor count (T/C endpoint: mean survival time, dose: 24.0 mg/kg/injection, schedule: Q01DX Z (sc), vehicle: saline) was 2 of 6 and the survivor count (T/C endpoint: mean survival time, dose: 25.0 mg/kg/injection, schedule: Q01DX Z (ip), vehicle: saline) was 6 of 6. For the same compound, the survivor count (T/C endpoint: mean survival time, dose: 32.0 mg/kg/injection, schedule: Q01DX009 (ip), vehicle: saline) was 3 of 6 and 6 of 6, the survivor count (T/C endpoint: mean survival time, dose: 32.0 mg/kg/injection, schedule: Q01DX010 (ip), vehicle: alkali diluted with saline) was 3 of 6, 5 of 6, 6 of 6 and the survivor count (T/C endpoint: mean survival time, dose: 40.0 mg/kg/injection, schedule: Q01DX010 (ip), vehicle: saline) was 6 of 6. For the same compound, the survivor count (T/C endpoint: mean survival time, dose: 48.0 mg/kg/injection, schedule: Q01DX006 (iv), vehicle: saline) was 3 of 6, the survivor count (T/C endpoint: mean survival time, dose: 48.0 mg/kg/injection, schedule: Q01DX Z (oral), vehicle: saline) was 2 of 6 and the T/C (T/C endpoint: mean survival time, dose: 96.0 mg/kg/injection, schedule: Q01DX006 (iv), vehicle: saline) was 133 % of control [5 of 6 alive]. For the same compound, the survivor count (T/C endpoint: mean survival time, dose: 96.0 mg/kg/injection, schedule: Q01DX Z (oral), vehicle: saline) was 3 of 6, the survivor count [2] was 4 of 6 and the survivor count [3] was 0 of 6. The T/C (T/C endpoint: median survival time, dose: 2.5 mg/kg/injection, schedule: Q01DX009 (ip), vehicle: saline) was 125 and 138 % of control, the T/C (T/C endpoint: median survival time, dose: 5.0 mg/kg/injection, schedule: Q01DX009 (ip), vehicle: saline) was 137 and 138 % of control and the T/C (T/C endpoint: median survival time, dose: 20.0 mg/kg/injection, schedule: Q01DX009 (ip), vehicle: saline) was 133 % of control.

In the case of `CCc1ccc(C)[n+](C)c1`, the survivor count (T/C endpoint: mean survival time, dose: 300.0 mg/kg/injection, schedule: Q01DX001 (ip), vehicle: saline) is reported as 3 of 6.

For `CC/C=N\NC`, the survivor count (T/C endpoint: mean survival time, dose: 50.0 mg/kg/injection, schedule: Q01DX001 (ip), vehicle: saline) was 2 of 4, the survivor count (T/C endpoint: mean survival time, dose: 80.0 mg/kg/injection, schedule: Q01DX001 (ip), vehicle: saline) was 0 of 6 and the survivor count [2] was 0 of 4. The survivor count [3] was 0 of 4 and the survivor count [4] was 0 of 4.

In the case of `C1C[S+]2CCN1CC2`, the survivor count [2] is reported as 1 of 4, the survivor count [3] is reported as 0 of 4 and the survivor count [4] is reported as 0 of 4.

For `Cc1cc(C)c(NC(=O)N(CCCl)N=O)cc1C`, the T/C (T/C endpoint: mean survival time, dose: 75.0 mg/kg/injection, schedule: Q01DX001 (ip), vehicle: carboxymethylcellulose (CMC)) was 135 % of control, the T/C (T/C endpoint: mean survival time, dose: 150.0 mg/kg/injection, schedule: Q01DX001 (ip), vehicle: carboxymethylcellulose (CMC)) was 141 % of control and the T/C (T/C endpoint: mean survival time, dose: 300.0 mg/kg/injection, schedule: Q01DX001 (ip), vehicle: carboxymethylcellulose (CMC)) was 142 % of control. For the same compound, the survivor count (T/C endpoint: mean survival time, dose: 300.0 mg/kg/injection, schedule: Q01DX009 (ip), vehicle: carboxymethylcellulose (CMC)) was 6 of 6 and the survivor count (T/C endpoint: mean survival time, dose: 400.0 mg/kg/injection, schedule: Q01DX001 (ip), vehicle: other) was 0 of 6.

In the case of `COc1cc(Cl)ccc1NC(=O)Oc1ccccc1C(N)=O`, the survivor count (T/C endpoint: mean survival time, dose: 25.0 mg/kg/injection, schedule: Q01DX009 (ip), vehicle: Klucel (hydroxypropylcellulose) (HPC)) is reported as 6 of 6, the survivor count (T/C endpoint: mean survival time, dose: 100.0 mg/kg/injection, schedule: Q01DX009 (ip), vehicle: Klucel (hydroxypropylcellulose) (HPC)) is reported as 5 of 6 and the survivor count (T/C endpoint: mean survival time, dose: 200.0 mg/kg/injection, schedule: Q01DX009 (ip), vehicle: Klucel (hydroxypropylcellulose) (HPC)) is reported as 5 of 6. For the same compound, the survivor count (T/C endpoint: mean survival time, dose: 400.0 mg/kg/injection, schedule: Q01DX009 (ip), vehicle: Klucel (hydroxypropylcellulose) (HPC)) was 0 of 6.

For `CN(C)CCOc1ccc(Cl)cc1Cc1ccccc1`, the survivor count (T/C endpoint: mean survival time, dose: 100.0 mg/kg/injection, schedule: Q01DX009 (ip), vehicle: saline) was 6 of 6, the survivor count (T/C endpoint: mean survival time, dose: 100.0 mg/kg/injection, schedule: Q04DX003 (ip), vehicle: saline) was 3 of 4 and the survivor count (T/C endpoint: mean survival time, dose: 200.0 mg/kg/injection, schedule: Q01DX009 (ip), vehicle: saline) was 0 of 6. The survivor count (T/C endpoint: mean survival time, dose: 200.0 mg/kg/injection, schedule: Q04DX003 (ip), vehicle: saline) was 0 of 4 and the survivor count (T/C endpoint: mean survival time, dose: 400.0 mg/kg/injection, schedule: Q04DX003 (ip), vehicle: saline) was 0 of 4.

`NC(N)=Nc1ccc([N+](=O)[O-])cc1` was tested, and the survivor count (T/C endpoint: mean survival time, dose: 100.0 mg/kg/injection, schedule: Q04DX002 (ip), vehicle: Klucel (hydroxypropylcellulose) (HPC)) was 0 of 3, the survivor count (T/C endpoint: mean survival time, dose: 200.0 mg/kg/injection, schedule: Q04DX002 (ip), vehicle: Klucel (hydroxypropylcellulose) (HPC)) was 0 of 3 and the survivor count (T/C endpoint: mean survival time, dose: 400.0 mg/kg/injection, schedule: Q04DX002 (ip), vehicle: Klucel (hydroxypropylcellulose) (HPC)) was 0 of 3.
